Laboratory results: publication PMC6214142

Columns and labels:
[1] = test system: RUNX1 (uveal melanoma nuclear extract) (Homo sapiens); assay: EMSA; settings: T97, T108 (weak), T142, T143 extracts, self competition abolished (100-fold text, 500-fold legend); EMSA: 10 mM Hepes pH 7.9, 10% glycerol, 0.1 mM EDTA, 0.5 mM DTT, 0.25 mM PMSF, 50 mM KCl, 2 ug poly(dI:dC); Tris-glycine gels at 4 C; protein in an extract; label: 5' 32P as probe, unlabeled as competitor
[2] = test system: RUNX1 (uveal melanoma nuclear extract) (Homo sapiens); assay: competition with a labelled probe; settings: EMSA: 10 mM Hepes pH 7.9, 10% glycerol, 0.1 mM EDTA, 0.5 mM DTT, 0.25 mM PMSF, 50 mM KCl, 2 ug poly(dI:dC), Tris-glycine gels at 4 C, protein in an extract, label: none (competitor)

Sequence | binding result [1] | binding result ([2]; probe N2, T143 extract, 100-fold excess) | binding result ([2]; probe N5, 100-fold or 500-fold excess)
GATCGGCTAATTTATGTGGTTTTTTTTGTAGA / GATCTCTACAAAAAAAACCACATAAATTAGCC [HTR2B RUNX1 site oligonucleotide] | binds | – | –
GATCGGCTAATTTATTTTTTTTTTTTTGTAGA / GATCTCTACAAAAAAAAAAAAATAAATTAGCC [RUNX1-mut] | – | no binding | no binding

The exact form of at least one protein or probe is not confirmed. At least one result comes from cells or an extract, where the contact may be indirect. For part of these data: A negative result means that nothing was seen under these conditions.
